# Results of single-concentration screens

Protein sequences, listed by entry. Tags and fused reporters are not part of them. Residues count along the entry.
UniProt I6X8D2, whole entry: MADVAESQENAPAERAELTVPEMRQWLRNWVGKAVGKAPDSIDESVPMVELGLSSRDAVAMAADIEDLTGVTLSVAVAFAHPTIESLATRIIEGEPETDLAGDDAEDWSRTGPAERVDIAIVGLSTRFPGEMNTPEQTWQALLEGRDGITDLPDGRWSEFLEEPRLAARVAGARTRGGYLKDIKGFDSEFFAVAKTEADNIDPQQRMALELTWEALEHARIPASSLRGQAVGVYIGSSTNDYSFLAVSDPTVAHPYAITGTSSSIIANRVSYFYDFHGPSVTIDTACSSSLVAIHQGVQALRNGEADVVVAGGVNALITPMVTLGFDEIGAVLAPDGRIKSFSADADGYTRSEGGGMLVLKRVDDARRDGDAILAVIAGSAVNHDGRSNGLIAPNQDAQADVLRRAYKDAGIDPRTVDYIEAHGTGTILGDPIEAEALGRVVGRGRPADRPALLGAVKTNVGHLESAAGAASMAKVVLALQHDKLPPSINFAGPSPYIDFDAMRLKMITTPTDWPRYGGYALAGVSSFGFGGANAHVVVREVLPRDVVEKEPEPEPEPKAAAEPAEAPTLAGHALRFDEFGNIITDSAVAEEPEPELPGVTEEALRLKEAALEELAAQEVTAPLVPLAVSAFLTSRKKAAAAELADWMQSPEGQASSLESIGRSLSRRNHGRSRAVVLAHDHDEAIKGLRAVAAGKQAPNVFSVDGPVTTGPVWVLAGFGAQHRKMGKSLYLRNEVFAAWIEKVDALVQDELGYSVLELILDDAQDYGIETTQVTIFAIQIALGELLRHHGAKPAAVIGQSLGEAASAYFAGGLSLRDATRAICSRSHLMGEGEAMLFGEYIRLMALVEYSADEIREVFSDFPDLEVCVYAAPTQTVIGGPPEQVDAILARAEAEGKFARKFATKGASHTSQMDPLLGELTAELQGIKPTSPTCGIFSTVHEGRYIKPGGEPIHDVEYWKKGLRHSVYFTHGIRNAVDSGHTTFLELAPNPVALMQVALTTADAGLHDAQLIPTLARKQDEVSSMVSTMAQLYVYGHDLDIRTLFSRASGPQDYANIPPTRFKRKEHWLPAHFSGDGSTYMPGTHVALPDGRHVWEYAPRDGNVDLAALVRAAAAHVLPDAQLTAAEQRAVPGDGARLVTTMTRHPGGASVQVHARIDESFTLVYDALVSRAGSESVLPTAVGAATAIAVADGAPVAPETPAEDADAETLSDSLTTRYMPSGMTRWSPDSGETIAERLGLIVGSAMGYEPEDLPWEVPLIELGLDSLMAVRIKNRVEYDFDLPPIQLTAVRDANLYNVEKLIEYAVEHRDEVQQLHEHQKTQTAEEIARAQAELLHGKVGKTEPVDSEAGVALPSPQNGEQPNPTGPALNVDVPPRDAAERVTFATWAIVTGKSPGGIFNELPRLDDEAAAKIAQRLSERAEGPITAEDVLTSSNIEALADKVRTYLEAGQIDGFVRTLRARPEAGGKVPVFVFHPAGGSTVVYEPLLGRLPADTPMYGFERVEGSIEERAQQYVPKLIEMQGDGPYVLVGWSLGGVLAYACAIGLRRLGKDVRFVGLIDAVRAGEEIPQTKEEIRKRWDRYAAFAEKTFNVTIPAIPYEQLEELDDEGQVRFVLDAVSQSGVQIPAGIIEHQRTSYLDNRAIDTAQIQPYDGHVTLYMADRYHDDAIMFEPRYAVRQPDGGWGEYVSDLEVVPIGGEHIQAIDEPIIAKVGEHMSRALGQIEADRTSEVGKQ
UniProt Q4DA54, 1-478: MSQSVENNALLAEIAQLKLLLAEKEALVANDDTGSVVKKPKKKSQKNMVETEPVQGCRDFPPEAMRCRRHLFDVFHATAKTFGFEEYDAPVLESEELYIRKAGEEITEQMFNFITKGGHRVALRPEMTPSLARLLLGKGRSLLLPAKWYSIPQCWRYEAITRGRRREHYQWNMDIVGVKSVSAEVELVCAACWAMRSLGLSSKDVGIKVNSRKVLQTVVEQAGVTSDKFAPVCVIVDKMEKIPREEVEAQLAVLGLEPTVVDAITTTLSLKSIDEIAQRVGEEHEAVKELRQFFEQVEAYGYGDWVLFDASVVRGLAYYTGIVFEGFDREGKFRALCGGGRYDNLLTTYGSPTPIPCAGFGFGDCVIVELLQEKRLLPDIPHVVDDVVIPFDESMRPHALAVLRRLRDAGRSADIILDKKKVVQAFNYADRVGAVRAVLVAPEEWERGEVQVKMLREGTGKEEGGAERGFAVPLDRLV

Source: ChEMBL document CHEMBL3988442, “University of Dundee, Small-Polar-MMV Screening Library” (2021).

Pks13 thioesterase: 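Enzyme assay of the thioesterase domain of polyketide synthase 13; the read-out is not stated. Target: Polyketide synthase Pks13, Mycobacterium tuberculosis (UniProt I6X8D2). Concentration: 30 µM. Higher reads as stronger inhibition (inferred from which compounds were picked for retests). Of about 67,000 compounds tested this way, about 300 (0.46%) reached 50% or more in at least one test.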
TcHisRS: 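Histidine-tRNA ligase, Trypanosoma cruzi CL Brener (UniProt Q4DA54). Enzyme assay of histidyl-tRNA synthetase; the read-out is not stated. Tested at 30 µM. Direction is inferred from retests: higher values go with stronger inhibition. Of about 69,000 compounds tested this way, about 31 (0.045%) reached 50% or more in at least one test.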

Each number is a percent effect as filed. The controls that fix the scale are not given in the record; negative values are as filed. Compounds were drawn at random from those tested, without regard to their results. A dash means the value is not listed here; it may have been measured.

Compound	Pks13 thioesterase	TcHisRS
CCC(C)S(=O)(=O)N(Cc1ccco1)Cc1ccccc1O (configuration not stated)	-17.86	3.191
CC(CC1CC1)NCCCN1CCCN(C)CC1 (configuration not stated)	2.75	6.098
CCn1cc(CNc2ccc3nccnc3c2)cn1	13.24	31.52
NC(=O)CCn1cc(CNCc2csc(N)n2)c2ccccc21	-15.04	0
O=C(c1ccoc1)N1CC[C@H]2[C@H]1CCN2S(=O)(=O)C1CC1	10.23	1.093
CCCNC(=O)C(C)Oc1ccccc1 (configuration not stated)	-22.76	1.058
Cc1cc(N2CCC3(CCC(=O)N(CCCO)C3)CC2)nc(N(C)C)n1	-28.83	1.685
O=C(NCCNc1ncccn1)c1cnc(-c2ccccc2)nc1	-17.37	3.488
CC(C)CN1CCC(NC(=O)c2ccc(Cl)cc2Cl)CC1	-18.56	2.232
COc1ccc(-c2cc(C3CCN(C(C)=O)CC3)ccn2)cc1	10.48	7.778
Cn1cnc(-c2nc(C(=O)NCCN3CCOCC3)c3ccccn23)c1	141.4	10.31
CC(=O)c1c(O)n(C)c2ccccc12	-16.84	10.31
CC(C)NC(=O)N1CCC(c2nnc3n2CCNC3)CC1	-13.65	25.44
CNC(=O)c1cn2cc(-c3ccccc3Cl)n(CC3CC3)c(=O)c2n1	-57.11	5.6
Cc1c(Cl)cc(C(=O)N(CCO)Cc2nccn2C)cc1Cl	-26.04	5.759
O=C(Cc1ccccc1F)N1CCN(C(=O)c2cccc(F)c2)CC1	-23.45	5.435
CC1CCc2nc(NC(=O)CN(C)C(=O)c3ccco3)sc2C1 (configuration not stated)	-13.6	-5.102
CN1CCO[C@@H]2CN(C(=O)c3ccc4[nH]ccc4c3)CC[C@@H]2C1	-0.7582	1.031
CN(C)[C@@H]1CO[C@H](CNC(=O)CC(C)(C)C)[C@H]1O	-29.94	-0.4975
N#Cc1ccc(S(=O)(=O)N2CC(CC(=O)O)c3ccccc32)cc1 (configuration not stated)	16.54	-1.463
CCCc1n[nH]c(C2CN(CCn3cccn3)CCO2)n1 (configuration not stated)	-29.61	0.813
Cc1nsc(N2CCN(Cc3cccc(F)c3)CC2)n1	8.338	0
O=C(Cc1ccc(F)cc1)N1CCn2cc(Cn3cncn3)nc2C1	-6.924	8.824
COCCCN(Cc1cc(O)nc2ccccc12)C(=O)NC(C)C	-6.641	5.941
Cc1ccccc1OCC1CCCN(C(=O)CNC(=O)N(C)C)C1 (configuration not stated)	-4.87	1.478
Cc1noc([C@@H]2CC[C@@H]3[C@@H](CCN3S(=O)(=O)c3ccccc3)O2)n1	5.27	2.439
O=C(c1ccc[nH]1)N1CC2(CCN(c3ncccn3)C2)C1	-22.9	5.882
Cn1c(CCNC(=O)C2CCCN(C3CCOCC3)C2)n[nH]c1=O (configuration not stated)	-12.86	-20.13
CN(C)S(=O)(=O)N1CCC(Oc2ccc(C#N)cc2)CC1	-8.145	4.878
O=C(NC1CC1)c1cc(C(F)(F)F)cc(C(F)(F)F)n1	-9.02	10.42
Cc1nccn1-c1cccc(N2CCC(OCC3CCCCO3)CC2)n1 (configuration not stated)	-8.348	7.143
O=C(CN1CCNC1=O)NCc1ccc2sccc2c1	10.84	5.639
CCc1nc(CN2CCN(C(=O)C3CCCCC3)CC2)cs1	-10.59	0
CSCC(CCO)NC(=O)Nc1ccc(C)cc1C (configuration not stated)	-2.458	3.659
CC(=O)c1ccc(NC(=O)NC(C)c2ccc3c(c2)CC(=O)N3)cc1 (configuration not stated)	-32.12	5.319
CC(C)c1nc2n(n1)CC(NCC(=O)NCCC1=CCCCC1)CC2 (configuration not stated)	-18.08	12.02
CCOCC1CN(Cc2cnn(C)c2)Cc2cnn(C)c21 (configuration not stated)	-17.51	7.438
CC1CN(C)c2ccccc2CN1CCn1cncn1 (configuration not stated)	-0.5548	6.667
COCc1cn(C[C@H]2CC3CCN2C[C@@H]3C(=O)Nc2ccccc2)nn1 (some centres not stated)	-3.882	6.931
Cc1c(NC(=O)NC2CCCC2)cccc1C(=O)N1CCSCC1	-0.7981	2.105
CN(CC(N)=O)C(=O)c1cnc(-c2ccc(Cl)s2)s1	-171.1	9.36
N[C@@H]1CCN(Cc2cc(-c3ccccc3OC(F)(F)F)no2)C[C@H]1O	-7.19	3.659
O=C(c1ccccn1)N1CC[C@H]2[C@H]1CCN2S(=O)(=O)C1CC1	-28.17	0
O=C(c1ccc(F)c(F)c1)N1CCC(Cn2cc(CO)nn2)CC1	-1.742	0
Cn1ccnc1-c1ccc(NCC2COc3ccccc3O2)nn1 (configuration not stated)	-12.69	6.329
COc1cccc(OCC2CCCN(C(=O)c3ccc(N)nc3)C2)c1 (configuration not stated)	-3.25	1.961
CCOC(=O)c1sc2ccsc2c1CNC(=O)CC	-15.96	-1.149
Cc1cc(O)nc(C2CN(CCC(F)(F)F)CCO2)n1 (configuration not stated)	-2.539	-3.802
CCOc1ncccc1NC(=O)NC1CCCN(S(C)(=O)=O)C1 (configuration not stated)	-3.907	3.134
O=C(Cc1cccs1)NS(=O)(=O)c1cccc2cnccc12	-5.554	4.294
CN(C)c1ccc(C(CNS(=O)(=O)c2cccs2)N2CCCC2)cc1 (configuration not stated)	4.422	3.518
Cn1cc(N2CCC3(CCCN(C(=O)c4ccnn4C)C3)C2=O)cn1 (configuration not stated)	-7.119	-7.018
O=C(c1cnc(-c2ccccc2)nc1)N1CCOC2(CCCC2)C1	-35.66	6.952
Cc1cnn(CC2CCCCN2Cc2cnc(C)s2)c1 (configuration not stated)	-25.21	10
CS(=O)(=O)Cc1noc(CN(Cc2ccco2)c2ccccc2)n1	-9.661	10.71
COCCN1CCC2(CC1)CN(CCn1cccn1)C(=O)CO2	-4.369	10.16
Cc1cc(C)n(CC(C)NC(=O)C2(c3ccc(F)cc3)CC2)n1 (configuration not stated)	-8.891	8.621
COCCN1CCN(S(=O)(=O)c2ccccc2)Cc2cccnc21	6.355	5.556
CC(=O)N1CCc2[nH]cnc2C12CCN(C(=O)CCn1cccn1)CC2	2.995	8.434
COc1cc(C)c(C(C)NC(=O)Nc2nnc(C)s2)cc1OC (configuration not stated)	-7.927	-0.8475
COc1ccc(CNC(=O)N2CCC(Cc3cnn(C)c3)C2)cc1C (configuration not stated)	-11.45	0
Cc1csc(C2CCCCN2C(=O)c2cc(C(C)C)[nH]n2)n1 (configuration not stated)	-	1.714
CC(Nc1ncnc2c1NC(=O)CN2)c1ccccn1 (configuration not stated)	-58.96	-0.4464
CC(C)N(C)CC(=O)NCc1ccccc1N1CCN(C)CC1	-3.004	4.255
CC(C)C(=O)N1CCN(CCOc2cccc(C#N)c2)CC1	-7.618	-0.8403
COCCN1CCC2(CC1)CC(COC)N(c1ncccn1)C2 (configuration not stated)	-7.209	2.51
NC(=O)c1csc(N2CCCC(c3nc4ccccc4[nH]3)C2)n1 (configuration not stated)	-22.01	0.8403
O=C(C1CC1)N(CCc1ccccc1)C1CCOC1 (configuration not stated)	-28.68	-0.9804
O=C(c1ccc(-n2cncn2)cc1)N1CCN(c2cnccn2)CC1	-11.1	6.404
Cc1nn(C)c2c(N3CCN(C(=O)C4CCCCC4)CC3)ncnc12	7.932	0.8696
COCCN1CCC(c2cncc(-c3cccc(Cl)c3)n2)CC1	-3.549	5.243
COCc1nnc2n1CCN(Cc1ccoc1)C2	-32.84	9.804
Cc1nc(CN2CCN(C(=O)CCc3ccco3)CC2)cs1	-16.97	1.433
CC(C)c1cc(Br)ccc1NC(=O)NC(C)(CO)CO	-22.94	6.383
CCN(Cc1ccco1)C(C)c1nc(C)no1 (configuration not stated)	-1.077	1.064
NC(=O)CC1CCCN(C(=O)NCC2(c3cccs3)CCCC2)C1 (configuration not stated)	-30.58	1.657
Cc1ccc(C(=O)N2CCOC3(CCCC3)C2)c(=O)[nH]1	4.457	-4.294
O=C(NC1CC1)c1ccnc(N2CCOC(c3ccc(Cl)cc3)C2)c1 (configuration not stated)	-4.973	-2.235
COCCN1CCOCC12CCN(c1cnccn1)CC2	-12	-1.105
COC1CCN(C(=O)c2ccc3ncsc3c2)CC1	38.45	11.36
Cc1cnc(CC2COCCN(C(=O)CN3CCOCC3)C2)cn1 (configuration not stated)	12.45	1.55

9 of the entries, repeated:

* CCN(Cc1ccco1)C(C)c1nc(C)no1 (configuration not stated) : Pks13 thioesterase: -1.077%; TcHisRS: 1.064%
* Cc1ccc(C(=O)N2CCOC3(CCCC3)C2)c(=O)[nH]1 : Pks13 thioesterase: 4.457%; TcHisRS: -4.294%
* CN(C)[C@@H]1CO[C@H](CNC(=O)CC(C)(C)C)[C@H]1O : Pks13 thioesterase: -29.94%; TcHisRS: -0.4975%
* CN(C)S(=O)(=O)N1CCC(Oc2ccc(C#N)cc2)CC1 : Pks13 thioesterase: -8.145%; TcHisRS: 4.878%
* O=C(Cc1cccs1)NS(=O)(=O)c1cccc2cnccc12 : Pks13 thioesterase: -5.554%; TcHisRS: 4.294%
* COc1ccc(-c2cc(C3CCN(C(C)=O)CC3)ccn2)cc1 : Pks13 thioesterase: 10.48%; TcHisRS: 7.778%
* Cn1cc(N2CCC3(CCCN(C(=O)c4ccnn4C)C3)C2=O)cn1 (configuration not stated) : Pks13 thioesterase: -7.119%; TcHisRS: -7.018%
* O=C(NCCNc1ncccn1)c1cnc(-c2ccccc2)nc1 : Pks13 thioesterase: -17.37%; TcHisRS: 3.488%
* COCc1nnc2n1CCN(Cc1ccoc1)C2 : Pks13 thioesterase: -32.84%; TcHisRS: 9.804%